In PubChem BioAssay AID504834 (National Center for Advancing Translational Sciences (NCATS), 2011):
The campaign covered roughly 320,000 compounds. About 22,000 (6.9%) were called active. This list was built around the results that the source calls inconclusive (neither active nor inactive); the mix of calls is not that of the screen. Calls come from the whole dose curve; as a rule, active = well fitted inhibition curve with a large enough effect; inconclusive = small, poorly fitted or top-dose-only effect, or another doubt; inactive = no such curve, though single readings can be large or run the other way. Potencies of inconclusive entries are doubtful fits and often do not repeat.

Experiment: Primary qHTS for delayed death inhibitors of the malarial parasite plastid, 96 hour incubation
Conditions: P. falciparum luciferase reporter growth; series mostly up to 28.7 µM; activity change, negative = inhibition: at the top concentration
Outline: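 Luminescence readout: decreased luciferase signal marks inhibited growth of reporter-expressing P. falciparum in infected red cells (2% hematocrit, 0.05% parasitemia final), exposed to compound two generations (96 h, 37 C, 5% CO2).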
% is set by controls: 0 for no effect and ±100 for the full control effect; potency is the fitted concentration of half-maximal effect.

For `CCCn1c(CN2CCCCC2C)nc2c1c(=O)n(C)c(=O)n2C` (stereo not drawn), which “activity change, negative = inhibition” value is on record?
The value was inactive: 10.6%.

With `Cc1nn(-c2ccccc2)c(C)c1C=O` as the compound, how does the “activity change, negative = inhibition” value read?
Its value is inactive: 9.04%.

Which “activity change, negative = inhibition” value does the source give for `O=C(O)CNC(=S)N(Cc1ccccc1)Cc1ccccc1F` here?
The value was inactive: 11.3%.

With `COc1cc2c(cc1OC)C(C(=O)Nc1ccc(F)c(Cl)c1)CC(=O)N2` (stereo not drawn) as the compound, how does the “activity change, negative = inhibition” value read?
Its value is inactive: -14.6%.

Which Potency does the source give for `COc1cccc(NC(=S)N(CCCN2CCCC2)Cc2ccco2)c1` here?
The Potency was inconclusive: 14.7 µM [inhibitor, partial curve, poor fit].

Which “activity change, negative = inhibition” value does the source give for `Cc1cc(C(=O)CSc2nc3ccccc3o2)c(C)n1CC1CCCO1` (stereo not drawn) here?
The value was inactive: 133%.

Which Potency does the source give for `COc1ccc(-c2ccnc(-c3ccncc3)n2)cc1` here?
Its Potency is inconclusive: 11.7 µM [inhibitor, single point].

For `CCNC(=S)NNC(=O)c1cc(C2CC2)nc2ccccc12`, which “activity change, negative = inhibition” value is on record?
The value was inactive: -14.6%.

For `O=C1CCCN1CC(=O)N1CCCC(Nc2cccc(F)c2)C1` (stereo not drawn), which “activity change, negative = inhibition” value is on record?
Its value is inactive: 21.5%.

For `COc1cccc(NC(=S)N(CCCN2CCOCC2)C(C)c2cc3ccccc3o2)c1` (stereo not drawn), which “activity change, negative = inhibition” value is on record?
The value was inactive: 0.909%.

Which Potency does the source give for `COc1cccc(CSc2nnnn2-c2ccc(O)cc2)c1` here?
Its Potency is inconclusive: 18.5 µM [inhibitor, single point].

For `CCCc1nc(-c2ccc(-c3ccc(F)cc3)cc2)no1`, which Potency is on record?
Its Potency is inconclusive: 10.4 µM [inhibitor, single point].

With `Cc1nc(N2CCOCC2)c2cc(-c3ccccc3)sc2n1` as the compound, how does the Potency read?
Its Potency is inconclusive: 18.5 µM [inhibitor, single point].

With `O=C(NCCO)c1ccc(Cl)c(Cl)c1` as the compound, how does the Potency read?
The Potency was active: 14.7 µM.

For `CC(=O)Nc1ccc(OC/C=C(\C)Cl)cc1`, which “activity change, negative = inhibition” value is on record?
Its value is inactive: -16.1%.

For `O=C(CNc1cc(S(=O)(=O)N2CCOCC2)ccc1N1CCCC1)N1CCc2ccccc21`, which Potency is on record?
The Potency was inconclusive: 10.4 µM [inhibitor, partial curve].

With `CCOC(=O)C1=C(C)OC(N)=C(C(=O)OCC)[C@@]12C(=O)N(CC(N)=O)c1ccccc12` as the compound, how does the “activity change, negative = inhibition” value read?
Its value is inactive: 32%.

Which “activity change, negative = inhibition” value does the source give for `CC(=O)Nc1cc(C)c(S(C)(=O)=O)c(C)c1` here?
The value was inactive: -3.04%.

With `CCCCN(Cc1cccs1)S(=O)(=O)c1csc(C(N)=O)c1` as the compound, how does the Potency read?
The Potency was inconclusive: 16.5 µM [inhibitor, partial curve, poor fit].

Which Potency does the source give for `COc1ccc(C(=O)Nc2cc(-c3ccccc3)nn2-c2ccccc2F)cc1` here?
Its Potency is inconclusive: 0.262 µM [inhibitor, full curve, poor fit].

For `CCOC(=O)c1c(NC(NC(=O)CF)C(Cl)(Cl)Cl)sc2c1CCCC2` (stereo not drawn), which Potency is on record?
The Potency was inconclusive: 18.5 µM [inhibitor, single point].

For `Cc1ccc2nc(SC(C)C(=O)N3CCCCC3)[nH]c2c1` (stereo not drawn), which “activity change, negative = inhibition” value is on record?
The value was inactive: 29.3%.

For `CCOCCCn1c(=S)[nH]c2cc(C(=O)N3CCN(C4CCCCC4)CC3)ccc2c1=O`, which Potency is on record?
Its Potency is active: 5.22 µM.

For `CCOC(=O)c1c(-c2cccc3ccccc23)csc1NC(=O)C1C2CCC(O2)C1C(=O)O` (stereo not drawn), which Potency is on record?
Its Potency is inconclusive: 11.7 µM [inhibitor, single point].

For `ON=C1c2cc(OCCN3CCCCC3)ccc2-c2ccc(OCCN3CCCCC3)cc21`, which Potency is on record?
The Potency was active: 1.47 µM.

For `COc1ccc(S(=O)(=O)N2CCN(CCc3ccccc3)CC2)cc1`, which Potency is on record?
The Potency was inconclusive: 4.65 µM [inhibitor, partial curve].

Which Potency does the source give for `CC(C)CNC(=O)N1c2ccccc2Sc2ccccc21` here?
The Potency was inconclusive: 0.0928 µM [inhibitor, full curve, poor fit].

Which Potency does the source give for `Cc1cc(C)n(CC(=O)c2ccc(Br)cc2)c(=O)c1C#N` here?
Its Potency is inconclusive: 11.7 µM [inhibitor, single point].

With `Nc1nc(C23CC4CC(CC(C4)C2)C3)[nH]c(=O)n1` as the compound, how does the “activity change, negative = inhibition” value read?
Its value is inactive: -19.3%.

Which Potency does the source give for `CCn1c(COc2ccccc2)nnc1SCC(=O)Nc1cc(C)ccc1OC` here?
Its Potency is inconclusive: 6.57 µM [inhibitor, partial curve, poor fit].

Which “activity change, negative = inhibition” value does the source give for `CCc1ccc(N(CC(=O)NCc2cccnc2)S(=O)(=O)c2ccccc2)cc1` here?
The value was inactive: 38.2%.

With `O=S(=O)(Nc1cccc(-c2cn3cccnc3n2)c1)c1ccc(F)cc1` as the compound, how does the Potency read?
Its Potency is inconclusive: 18.5 µM [inhibitor, single point].

Which Potency does the source give for `N#Cc1cccc(NC(=O)C2CCCN(C(=O)c3ccc(Cl)cc3)C2)c1` (stereo not drawn) here?
The Potency was active: 9.28 µM.

With `COCCn1nnnc1CN1CCN(C(=O)c2ccco2)CC1` as the compound, how does the “activity change, negative = inhibition” value read?
Its value is inactive: -26.7%.

Which Potency does the source give for `CCOc1ccccc1N1CCN(c2nc3ccccc3nc2C(C#N)C(=O)OC)CC1` (stereo not drawn) here?
The Potency was inconclusive: 2.08 µM [inhibitor, partial curve, poor fit].

Which Potency does the source give for `NC(Cc1ccccc1)C(O)(c1ccccc1)c1ccccc1` (stereo not drawn) here?
The Potency was inconclusive: 4.65 µM [inhibitor, partial curve].

For `O=C(Cn1c(-c2ccccc2)c[n+]2ccsc12)c1ccc(Br)cc1`, which Potency is on record?
The Potency was inconclusive: 3.29 µM [inhibitor, single point].

Which Potency does the source give for `COc1ccc(C(=O)C2CCN(C(=S)Nc3ccc(F)cc3)CC2)cc1` here?
Its Potency is inconclusive: 8.28 µM [inhibitor, single point].

Which “activity change, negative = inhibition” value does the source give for `COc1cc(NC(=O)c2ccc(Cl)cc2Cl)ccc1-c1cc2ccccc2oc1=O` here?
Its value is inactive: -17%.

Which Potency does the source give for `COc1ccccc1NC(=O)c1nn(-c2ccccc2)ccc1=O` here?
The Potency was inconclusive: 11.7 µM [inhibitor, single point].

With `N#CC1=C(S)N(c2ccc(F)cc2)C2(CCCCC2)NC1=O` as the compound, how does the Potency read?
Its Potency is inconclusive: 0.0047 µM [inhibitor, full curve, poor fit].

With `CC(=O)N1CCOc2ccc(S(=O)(=O)NCC3CCC(C(=O)Nc4ccc(C)cn4)CC3)cc21` (stereo not drawn) as the compound, how does the Potency read?
Its Potency is inconclusive: 20.8 µM [inhibitor, partial curve, poor fit].

Which “activity change, negative = inhibition” value does the source give for `CCOC(=O)c1cnc(SCC(=O)NNC(=O)c2ccco2)nc1N` here?
Its value is inactive: -4.11%.

For `COC(=O)c1cnc[nH]1`, which “activity change, negative = inhibition” value is on record?
Its value is inactive: -3.32%.

Which Potency does the source give for `CCC(C)c1ccc(NC(=S)N2CCCC2)cc1` (stereo not drawn) here?
Its Potency is inconclusive: 18.5 µM [inhibitor, single point].

For `Cc1ccc(S(=O)(=O)NCCc2nnc3ccc(SCc4cccnc4)nn23)cc1`, which Potency is on record?
The Potency was inconclusive: 1.17 µM [inhibitor, partial curve, poor fit].

With `CC1(C)CC(=O)C2=C(C1)NC(=O)CC2c1ccc(N(CCC#N)CCC#N)cc1` (stereo not drawn) as the compound, how does the Potency read?
The Potency was inconclusive: 18.5 µM [inhibitor, single point].

For `CC(C)Nc1nnc(SCC(=O)Nc2ccc3c(c2)C(=O)c2ccccc2C3=O)s1`, which Potency is on record?
The Potency was inconclusive: 14.7 µM [inhibitor, partial curve, poor fit].
